Test results from article PMC11614259.
Results are given in words; binding and its absence hold for the method and conditions named. Binding calls can cover weak binding; strength is not graded here.

Biological target: Far11 (striatin-interacting protein, CNAG_00008) (C. neoformans H99) (UniProt J9VFL9)
Assay: two-hybrid; Gal4 system; GBD fusions (pGBKT7) in Y2HGold crossed with GAD fusions (pGADT7) in Y187, 6-by-6; ADE2 and HIS3 reporters; SD dropout medium without histidine, adenine sulfate 10 mg/L, 3 mM 3-AT

binding: binds
Substance: Pph22 (protein phosphatase 2A catalytic C subunit, CNAG_02177) (from UniProt J9VN16) (enzyme)
